{
  "source": "patent US8575111B2",
  "about": "“Pharmaceutical compositions and methods for treating erectile dysfunction” (Universidade Federal de Minas Garais-UFMG, priority 2007, dated 2013)",
  "origin": "cited, not measured here",
  "system": "erectile dysfunction",
  "conditions": "cited from earlier work",
  "note": "Counter-ions that a name gives are not always drawn. At least one structure is not confirmed: it was looked up by name or label, or the drawing left a doubt.",
  "data": [
    {"smiles": "CCCc1nn(C)c2c(=O)[nH]c(-c3cc(S(=O)(=O)N4CCN(C)CC4)ccc3OCC)nc12", "note": "[VIAGRA®, sildenafil citrate]", "values": [
      {"measurement": "patients in whom the treatment is effective", "setting": "men with erectile dysfunction", "result": "up to 80%"},
      {"measurement": "effect on libido (sexual desire)", "setting": "oral", "result": "no effect on libido"}
    ]}
  ]
}
